Results deposited as PubChem BioAssay AID743121 (NCATS, 2013)

Test: 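Knock-downs that sensitise breast cancer cells to camptothecin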 (primary screen)
Cell system: MDA-MB-231 cells, a human breast cancer line
Reagent: single siRNA against human genes, 20 nM siRNA (0.8 pmol per well)
Time to read-out: 120 h (drug added 48 h after transfection, read 72 h later)
Conditions: camptothecin 20 nM (about EC30) for 72 h; vehicle 0.1% DMSO in parallel plates
Measurement: 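CellTiter-Glo ATP signal, scaled to control siRNA as percent viability; sensitisation given as log2 of untreated divided by camptothecin-treated viability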
Direction: log2 vehicle/camptothecin viability: higher = stronger sensitisation to camptothecin
Rule for the call: 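Each gene scored by redundant siRNA activity (RSA) over its individual siRNA ratios; a gene is called active at p < 0.001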
This is a random part of about 26,000 deposited reagents. Of all reagents, 167 (0.63%) were called active. 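Calls are per gene from RSA p-values that are not deposited; an individual active-marked siRNA can sensitise only weakly.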 Entries without a mark were called inactive. Reagents against one gene are numbered here. Further read-outs or replicates are left out here.

REL #1: log2 vehicle/camptothecin viability = 0.269
REL #2: log2 vehicle/camptothecin viability = -0.728
REL #3: log2 vehicle/camptothecin viability = -0.966
REL #4: log2 vehicle/camptothecin viability = -0.109
FURIN #1: log2 vehicle/camptothecin viability = 0.204
FURIN #2: log2 vehicle/camptothecin viability = 0.245
FURIN #3: log2 vehicle/camptothecin viability = 0.148
SLC25A1 #1: log2 vehicle/camptothecin viability = -0.0234
SLC25A1 #2: log2 vehicle/camptothecin viability = -0.111
SLC25A1 #3: log2 vehicle/camptothecin viability = -0.0433
SLC25A1 #4: log2 vehicle/camptothecin viability = -0.655
LONP2 #1: log2 vehicle/camptothecin viability = 0.148
LONP2 #2: log2 vehicle/camptothecin viability = -0.515
LONP2 #3: log2 vehicle/camptothecin viability = -0.356
LONP2 #4: log2 vehicle/camptothecin viability = -0.00345

Sorted by “log2 vehicle/camptothecin viability” (ascending): 6 of the entries above.
SLC25A1 #4: log2 vehicle/camptothecin viability = -0.655
LONP2 #2: log2 vehicle/camptothecin viability = -0.515
LONP2 #3: log2 vehicle/camptothecin viability = -0.356
SLC25A1 #3: log2 vehicle/camptothecin viability = -0.0433
LONP2 #4: log2 vehicle/camptothecin viability = -0.00345
LONP2 #1: log2 vehicle/camptothecin viability = 0.148

Further reagents:
GP2 #1: log2 vehicle/camptothecin viability = -0.202
GP2 #2: log2 vehicle/camptothecin viability = -0.318
GP2 #3: log2 vehicle/camptothecin viability = 0.0539
GP2 #4: log2 vehicle/camptothecin viability = -0.201
SUMO2 #1: log2 vehicle/camptothecin viability = 0.325
SUMO2 #2: log2 vehicle/camptothecin viability = -0.218
SUMO2 #3: log2 vehicle/camptothecin viability = 0.502
PDHA1 #1: log2 vehicle/camptothecin viability = -0.00394
PDHA1 #2: log2 vehicle/camptothecin viability = -0.0442
PDHA1 #3: log2 vehicle/camptothecin viability = -0.0672
PDHA1 #4: log2 vehicle/camptothecin viability = -0.253
XRCC4 #1: log2 vehicle/camptothecin viability = 0.243
XRCC4 #2: log2 vehicle/camptothecin viability = -0.375
XRCC4 #3: log2 vehicle/camptothecin viability = -0.217
SSX2 #1: log2 vehicle/camptothecin viability = -0.117
SSX2 #2: log2 vehicle/camptothecin viability = -0.402
SSX2 #3: log2 vehicle/camptothecin viability = -0.164
SSX2 #4: log2 vehicle/camptothecin viability = -0.449
PEX2 #1: log2 vehicle/camptothecin viability = -0.194
PEX2 #2: log2 vehicle/camptothecin viability = 0.118
PEX2 #3: log2 vehicle/camptothecin viability = -0.505
